The other results are listed elsewhere or left out. Further columns of the screen follow, without active or inactive calls. Compounds called inactive in the main read-out are mostly missing here. The note in brackets gives the kind of curve behind each potency; many fits are weak.
Assay: qHTS Assay for Lipid Storage Modulators in Drosophila S3 Cells;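 on cell number change: cells counted by Cell Tracker Red CMTPX staining in the red channel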
Details: BODIPY lipid droplet fluorescence, 18-24 h; for cell number change: measured here: cell count max response, cells fed with added oleic acid
Procedure, shortened: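 Laser-scanning cytometry quantifies lipid droplet accumulation (500–530 nm total intensity; droplet/cell object ratio) in oleic acid-fed (400 uM added) Drosophila S3 cells treated with a concentration series. 20 uM Triacsin C defined 100% inhibition.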

[1] = measured here: cell number channel AC50, cells fed with added oleic acid
[2] = measured here: lipid fluorescence (Fed channel) AC50, cells fed with added oleic acid

With `CC1(C)CC(OC(=O)c2ccccc2)CC(C)(C)N1` the cell number change was -19%, the AC50 [1] was 0.092 µM [falling, full curve, poor fit] and the AC50 [2] was 4.11 µM [falling, full curve].

In the case of `COc1ccc(NC(=O)NCCCN2CCN(c3cc(C)ccc3C)CC2)cc1`, the cell number change is reported as 32.3%, the AC50 [1] is reported as 11.6 µM [rising, single point] and the AC50 [2] is reported as 0.206 µM [falling, full curve, poor fit].

For `Cc1cc(Cc2cc(C)c(N)cc2C)c(C)cc1N`, the cell number change was 109%, the AC50 [1] was 0.146 µM [rising, full curve] and the AC50 [2] was 0.146 µM [rising, full curve].

In the case of `CC(C)CCSc1nc2[nH]ncc2c(=O)[nH]1`, the cell number change is reported as -53.1%, the AC50 [1] is reported as 0.13 µM [falling, full curve] and the AC50 [2] is reported as 23.1 µM [falling, single point].

In the case of `Cc1cc(C)c(S(=O)(=O)Nn2cnnc2)c(C)c1`, the cell number change is reported as -43.3%, the AC50 [1] is reported as 8.2 µM [falling, partial curve] and the AC50 [2] is reported as 16.4 µM [falling, single point].

With `COC(=O)c1cc(Br)ccc1-c1ccc(/C=N/n2nnnc2N)o1` the AC50 [1] was 2.91 µM [rising, partial curve] and the AC50 [2] was 6.51 µM [rising, partial curve].

With `COc1cc2[nH]c(=O)n(CCC(=O)N3CCN(Cc4ccccc4)CC3)c(=O)c2cc1OC` the cell number change was 83.4%, the AC50 [1] was 25.9 µM [rising, single point] and the AC50 [2] was 29.1 µM [rising, single point].

For `COc1ccc(NC(=O)c2[nH]c(C)c(C(C)=O)c2C)cc1S(=O)(=O)Nc1ccc(Br)cc1`, the cell number change was -27.9% and the AC50 [2] was 16.4 µM [falling, single point].

With `O=C(O)Cc1sc(NCCc2ccccc2)nc1-c1ccc(F)cc1` the cell number change was 16%.

In the case of `CCOC(=O)C1=C(C)C(c2ccccc2)NC(=S)N1` (stereo not given), the cell number change is reported as -6.13%, the AC50 [1] is reported as 1.3 µM [rising, full curve] and the AC50 [2] is reported as 2.31 µM [rising, partial curve].

With `CC(=O)N/C(N)=N/c1nc2cc([N+](=O)[O-])ccc2o1` the cell number change was 30.6% and the AC50 [1] was 6.51 µM [rising, full curve, poor fit].

For `O=C(NCC1CCCO1)c1ccc2c(c1)N(Cc1ccc(F)cc1)CCS2` (stereo not given), the cell number change was -4.89% and the AC50 [2] was 29.1 µM [falling, single point].

With `CCC(C)c1ccccc1OCCCN(C)Cc1ccccc1` (stereo not given) the cell number change was -17.3% and the AC50 [2] was 18.4 µM [falling, single point].

With `CCC1CCCCN1CCCNC(=O)c1ccc(N2CCOCC2)c(NS(=O)(=O)c2ccc(OC)cc2)c1` (stereo not given) the cell number change was 18.6% and the AC50 [2] was 0.116 µM [rising, full curve, poor fit].

In the case of `N#Cc1nc(-c2ccco2)oc1NCCCN1CCOCC1`, the cell number change is reported as 3.9% and the AC50 [2] is reported as 0.58 µM [falling, partial curve].

In the case of `Cn1ncc2c(Nc3ccccc3Cl)nc(Nc3ccccc3Cl)nc21`, the cell number change is reported as -31.7%, the AC50 [1] is reported as 13 µM [falling, single point] and the AC50 [2] is reported as 18.4 µM [falling, single point].

For `Cc1ccc(C)c(S(=O)(=O)N2CCCC2CNC(=O)C(=O)NC2CCCCCC2)c1` (stereo not given), the cell number change was -33.2%, the AC50 [1] was 14.6 µM [falling, partial curve] and the AC50 [2] was 6.51 µM [falling, single point].

In the case of `CCOC(=O)N1CCN(C(=O)c2ccc(OC)c(OC)c2)CC1`, the cell number change is reported as -4.29% and the AC50 [2] is reported as 6.51 µM [falling, partial curve, poor fit].

Compound `CCOC(=O)c1[nH]ncc1CN1CCC(Cc2ccccc2)(C(=O)OCC)CC1` has a cell number change of 9.94%.

`O=C(CCc1nc(-c2ccccc2)no1)NCc1cccnc1` gave a cell number change of 27.1%.

In the case of `CCNC(=O)CC1C(=O)N(c2ccccc2)C(=O)N1Cc1ccc(OC)cc1` (stereo not given), the cell number change is reported as 1.84% and the AC50 [2] is reported as 18.4 µM [falling, partial curve].

In the case of `Cc1ccc2sc(NC(=O)c3cccc(N4C(=O)CCC4=O)c3)nc2c1C`, the cell number change is reported as -30.3% and the AC50 [1] is reported as 2.59 µM [falling, partial curve, poor fit].

With `COc1ccccc1NC(=O)c1c(N=Cc2cccc([N+](=O)[O-])c2)cnn1C` the cell number change was 18.2% and the AC50 [2] was 0.82 µM [rising, full curve, poor fit].

With `CCCc1cc(=O)oc2c(C)c(OC(C)C(=O)NCCN3CCOCC3)ccc12` (stereo not given) the cell number change was 35.3%, the AC50 [1] was 5.17 µM [rising, full curve, poor fit] and the AC50 [2] was 5.17 µM [rising, single point].

In the case of `CCOC(=O)c1cnn(-c2nc(SC)nc3sc4c(c23)CCC4)c1N`, the cell number change is reported as 4.08% and the AC50 [2] is reported as 4.11 µM [rising, full curve].

In the case of `CCOc1ccccc1NC(=O)c1ccc(OCC)c([N+](=O)[O-])c1`, the cell number change is reported as 20.3% and the AC50 [2] is reported as 23.1 µM [rising, single point].

With `Cc1nccn1-c1cc(C(C)(C)C)nc2c(-c3ccccc3)cnn12` the cell number change was -23% and the AC50 [2] was 0.366 µM [falling, partial curve, poor fit].

For `CCc1ccc(-c2nc(CN3CCC(C(=O)N4CCN(c5ccccc5)CC4)CC3)c(C)o2)cc1`, the cell number change was -30.3%, the AC50 [1] was 29.1 µM [falling, single point] and the AC50 [2] was 29.1 µM [falling, single point].

In the case of `CC(=O)C1=C(C)NC(SCc2cccc3ccccc23)=C(C#N)C1c1ccco1` (stereo not given), the cell number change is reported as 2.56% and the AC50 [2] is reported as 1.64 µM [rising, full curve, poor fit].

With `Cc1ccc(NS(=O)(=O)c2ccc(C(=O)NCCCN3CCCC3=O)cc2)cc1` the cell number change was -18.2% and the AC50 [2] was 0.731 µM [falling, partial curve].

With `Cn1c(=O)n(C)c2cc(S(=O)(=O)NCCO)ccc21` the cell number change was 3.31% and the AC50 [2] was 6.51 µM [falling, single point].

`CCCn1c(=N)c(S(=O)(=O)c2ccccc2)cc2c(=O)n3ccccc3nc21` showed a cell number change of -24%.

With `C[C@@H]1CCC[C@@]2(O[C@H](CCO)C[C@@H](O)[C@@H]2O)O1` the cell number change was -22.6% and the AC50 [2] was 0.731 µM [falling, full curve].

With `CN(C(=O)c1cccc(C(=O)N(C)c2ccccc2)c1)c1ccccc1` the cell number change was -3.81% and the AC50 [2] was 29.1 µM [rising, single point].

`CCOc1ccc2[nH]c3nc(SCC(=O)NCC4CCCO4)nnc3c2c1` (stereo not given) gave a cell number change of -25%.

In the case of `O=C(NC(=O)N1CCOCC1)c1ccccc1`, the cell number change is reported as 42.5%, the AC50 [1] is reported as 29.1 µM [rising, single point] and the AC50 [2] is reported as 1.16 µM [falling, full curve, poor fit].

In the case of `Cc1ccccc1C(=O)NC(=S)Nc1ncccn1`, the cell number change is reported as 8.4% and the AC50 [2] is reported as 29.1 µM [rising, single point].

In the case of `Cc1ccc(S(=O)(=O)N2CCCCC2C(=O)N2CCN(C)CC2)cc1` (stereo not given), the cell number change is reported as 8.37% and the AC50 [2] is reported as 6.51 µM [falling, single point].

With `CCCC(=O)N=c1sc2c(OC)ccc(OC)c2n1C` the AC50 [2] was 1.3 µM [rising, full curve, poor fit].

For `Cc1cc(-c2ccccc2C(=O)NCc2ccccc2)on1`, the AC50 [1] was 0.326 µM [rising, full curve].

In the case of `Cc1c(C(=O)OCC(=O)Nc2ccc(S(N)(=O)=O)cc2)oc2c1ccc1ccccc12`, the cell number change is reported as -50%, the AC50 [1] is reported as 13 µM [falling, partial curve] and the AC50 [2] is reported as 32.6 µM [falling, partial curve, poor fit].

With `O=C(CSc1nnnn1-c1ccc2c(c1)CCC2)NCc1cccs1` the cell number change was 16.7%.

In the case of `O=C(Nc1cccc(S(=O)(=O)N2CCOCC2)c1)c1ccc2ccccc2n1`, the cell number change is reported as -20.2% and the AC50 [2] is reported as 10.3 µM [falling, partial curve, poor fit].

For `COC(=O)c1cc(NC(=O)CC2SCCNC2=O)cc(C(=O)OC)c1` (stereo not given), the cell number change was 42.4%, the AC50 [1] was 1.46 µM [rising, partial curve, poor fit] and the AC50 [2] was 1.3 µM [rising, full curve].

With `CCN1CCN(C(=O)Nc2cccc3ccccc23)CC1` the cell number change was 49.5%, the AC50 [1] was 3.66 µM [rising, full curve] and the AC50 [2] was 3.66 µM [falling, full curve, poor fit].

In the case of `O=C1C=C(NCCNc2c(F)c(F)c(CO)c(F)c2F)CCC1`, the cell number change is reported as -43.9%, the AC50 [1] is reported as 29.1 µM [falling, single point] and the AC50 [2] is reported as 1.3 µM [falling, partial curve].

With `Cc1cc(C)c2c(C)[nH]nc2n1` the cell number change was -10.5% and the AC50 [2] was 0.0366 µM [falling, full curve].

In the case of `Fc1ccc(Nc2c(-c3ccco3)nc3ccccn23)cc1`, the cell number change is reported as 27.3%.

With `O=C(CCn1cnc2ccccc2c1=O)Nc1ccc2c(c1)OCCO2` the cell number change was 9.26% and the AC50 [2] was 8.2 µM [rising, partial curve, poor fit].

`CNS(=O)(=O)c1cc(NC(=O)CCCNC(=O)c2ccc(Cl)cc2)ccc1C` showed a cell number change of 16.4%.

In the case of `N#CCCn1nc(-c2ccc(Br)cc2)cc1Nc1ccccc1NC(=O)C(F)(F)F`, the cell number change is reported as -0.0784% and the AC50 [2] is reported as 6.51 µM [rising, single point].

With `C=CC1=C(C(=O)O)N2C(=O)C(NC(=O)Cc3ccccc3)C2SC1` (stereo not given) the cell number change was 5.59% and the AC50 [2] was 0.206 µM [falling, full curve].

With `CCCCOc1ccc(C(=O)NCC(=O)NC2CCN(Cc3ccccc3)CC2)cc1` the cell number change was 30.2% and the AC50 [2] was 0.259 µM [rising, full curve, poor fit].

In the case of `O=C(CCn1c(=O)c2ccccc2n(CC(=O)NC2CCCC2)c1=O)NCc1ccco1`, the cell number change is reported as 45.2%, the AC50 [1] is reported as 1.16 µM [rising, partial curve] and the AC50 [2] is reported as 0.461 µM [rising, partial curve, poor fit].

In the case of `NC(=O)c1ccc(NC(=O)COC(=O)C2CC(=O)N(Cc3ccccc3)C2)cc1` (stereo not given), the cell number change is reported as -40.6%, the AC50 [1] is reported as 0.00651 µM [falling, full curve, poor fit] and the AC50 [2] is reported as 0.00517 µM [falling, full curve, poor fit].

In the case of `CCN(CC(=O)Nc1ccc(S(N)(=O)=O)cc1)S(=O)(=O)c1cc(C)ccc1OC`, the cell number change is reported as 14.1% and the AC50 [2] is reported as 0.146 µM [falling, partial curve, poor fit].

Reference: PubChem BioAssay AID2685 (National Center for Advancing Translational Sciences (NCATS), 2010)
